From paper PMC5241692
No constants are given. Whether binding was seen depends on the method and setting. In cells and extracts the contact can be indirect. Some binding calls cover weakened binding; strength is not graded here.

By UniProt entry, the sequences of proteins in these tests, tags left out.
UniProt Q63472: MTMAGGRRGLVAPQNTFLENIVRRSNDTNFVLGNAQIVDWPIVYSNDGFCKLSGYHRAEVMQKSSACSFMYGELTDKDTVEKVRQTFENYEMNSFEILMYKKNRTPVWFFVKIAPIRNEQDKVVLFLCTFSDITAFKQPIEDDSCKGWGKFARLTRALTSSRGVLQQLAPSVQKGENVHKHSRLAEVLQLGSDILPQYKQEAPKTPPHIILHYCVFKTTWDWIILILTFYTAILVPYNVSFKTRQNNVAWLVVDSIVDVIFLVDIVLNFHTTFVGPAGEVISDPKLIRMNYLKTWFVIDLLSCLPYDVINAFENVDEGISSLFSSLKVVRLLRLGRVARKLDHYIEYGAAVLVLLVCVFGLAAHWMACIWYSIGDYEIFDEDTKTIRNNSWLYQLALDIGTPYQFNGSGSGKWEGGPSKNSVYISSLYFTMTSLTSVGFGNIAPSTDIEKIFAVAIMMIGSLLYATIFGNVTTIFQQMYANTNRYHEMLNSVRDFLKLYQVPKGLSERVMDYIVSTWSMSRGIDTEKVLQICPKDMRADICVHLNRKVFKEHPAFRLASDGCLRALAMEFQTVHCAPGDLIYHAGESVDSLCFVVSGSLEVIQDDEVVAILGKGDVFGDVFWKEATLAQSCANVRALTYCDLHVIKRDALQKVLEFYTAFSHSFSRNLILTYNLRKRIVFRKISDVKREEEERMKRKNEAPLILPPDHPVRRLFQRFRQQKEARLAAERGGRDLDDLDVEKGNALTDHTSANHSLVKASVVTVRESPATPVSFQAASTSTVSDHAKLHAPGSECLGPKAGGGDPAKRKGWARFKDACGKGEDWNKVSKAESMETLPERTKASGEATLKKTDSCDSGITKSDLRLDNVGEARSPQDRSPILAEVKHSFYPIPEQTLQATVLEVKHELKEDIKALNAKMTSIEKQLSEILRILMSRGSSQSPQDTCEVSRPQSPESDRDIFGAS
UniProt Q14999: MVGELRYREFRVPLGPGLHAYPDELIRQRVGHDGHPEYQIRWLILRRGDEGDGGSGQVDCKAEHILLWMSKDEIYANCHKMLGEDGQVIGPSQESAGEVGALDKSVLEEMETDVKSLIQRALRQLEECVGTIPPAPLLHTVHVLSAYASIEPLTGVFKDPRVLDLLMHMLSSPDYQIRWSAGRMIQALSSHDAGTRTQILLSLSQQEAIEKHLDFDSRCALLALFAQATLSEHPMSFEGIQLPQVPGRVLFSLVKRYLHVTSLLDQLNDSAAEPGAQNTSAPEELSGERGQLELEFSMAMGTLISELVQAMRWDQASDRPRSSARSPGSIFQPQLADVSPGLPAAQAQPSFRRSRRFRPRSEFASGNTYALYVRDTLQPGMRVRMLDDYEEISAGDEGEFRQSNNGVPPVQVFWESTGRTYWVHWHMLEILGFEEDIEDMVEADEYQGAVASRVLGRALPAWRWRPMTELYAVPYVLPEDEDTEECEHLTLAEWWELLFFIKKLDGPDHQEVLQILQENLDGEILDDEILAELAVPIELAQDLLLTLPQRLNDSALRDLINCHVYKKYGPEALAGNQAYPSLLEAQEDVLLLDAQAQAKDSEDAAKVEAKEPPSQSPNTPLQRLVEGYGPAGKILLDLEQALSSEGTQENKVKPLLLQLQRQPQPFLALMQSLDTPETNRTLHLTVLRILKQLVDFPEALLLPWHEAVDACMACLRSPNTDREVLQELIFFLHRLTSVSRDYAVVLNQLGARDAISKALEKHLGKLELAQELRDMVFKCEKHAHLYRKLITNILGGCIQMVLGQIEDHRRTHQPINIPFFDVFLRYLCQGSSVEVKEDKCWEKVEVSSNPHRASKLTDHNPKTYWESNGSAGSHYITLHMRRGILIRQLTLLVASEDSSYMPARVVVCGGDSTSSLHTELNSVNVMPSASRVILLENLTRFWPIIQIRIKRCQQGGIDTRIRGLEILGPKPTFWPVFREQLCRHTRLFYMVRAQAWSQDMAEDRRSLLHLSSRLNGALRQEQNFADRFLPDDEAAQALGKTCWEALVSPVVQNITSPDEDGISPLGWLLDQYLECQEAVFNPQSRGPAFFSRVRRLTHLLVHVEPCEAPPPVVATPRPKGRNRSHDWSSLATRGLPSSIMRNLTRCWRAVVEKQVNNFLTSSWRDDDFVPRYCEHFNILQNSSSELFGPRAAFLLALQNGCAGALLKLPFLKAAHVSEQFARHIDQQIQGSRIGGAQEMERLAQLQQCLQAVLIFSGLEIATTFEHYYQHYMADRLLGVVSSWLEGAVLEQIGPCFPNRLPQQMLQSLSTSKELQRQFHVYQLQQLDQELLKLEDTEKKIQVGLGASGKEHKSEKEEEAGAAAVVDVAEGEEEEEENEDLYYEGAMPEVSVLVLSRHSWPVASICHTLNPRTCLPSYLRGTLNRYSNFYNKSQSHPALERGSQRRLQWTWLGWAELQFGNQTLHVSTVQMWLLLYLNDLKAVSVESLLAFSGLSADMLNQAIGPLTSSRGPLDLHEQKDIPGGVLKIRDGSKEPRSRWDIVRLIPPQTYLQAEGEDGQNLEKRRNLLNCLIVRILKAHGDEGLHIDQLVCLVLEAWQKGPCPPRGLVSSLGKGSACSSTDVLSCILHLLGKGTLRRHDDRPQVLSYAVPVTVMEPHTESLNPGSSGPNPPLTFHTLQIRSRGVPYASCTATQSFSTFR
UniProt D3ZEF4: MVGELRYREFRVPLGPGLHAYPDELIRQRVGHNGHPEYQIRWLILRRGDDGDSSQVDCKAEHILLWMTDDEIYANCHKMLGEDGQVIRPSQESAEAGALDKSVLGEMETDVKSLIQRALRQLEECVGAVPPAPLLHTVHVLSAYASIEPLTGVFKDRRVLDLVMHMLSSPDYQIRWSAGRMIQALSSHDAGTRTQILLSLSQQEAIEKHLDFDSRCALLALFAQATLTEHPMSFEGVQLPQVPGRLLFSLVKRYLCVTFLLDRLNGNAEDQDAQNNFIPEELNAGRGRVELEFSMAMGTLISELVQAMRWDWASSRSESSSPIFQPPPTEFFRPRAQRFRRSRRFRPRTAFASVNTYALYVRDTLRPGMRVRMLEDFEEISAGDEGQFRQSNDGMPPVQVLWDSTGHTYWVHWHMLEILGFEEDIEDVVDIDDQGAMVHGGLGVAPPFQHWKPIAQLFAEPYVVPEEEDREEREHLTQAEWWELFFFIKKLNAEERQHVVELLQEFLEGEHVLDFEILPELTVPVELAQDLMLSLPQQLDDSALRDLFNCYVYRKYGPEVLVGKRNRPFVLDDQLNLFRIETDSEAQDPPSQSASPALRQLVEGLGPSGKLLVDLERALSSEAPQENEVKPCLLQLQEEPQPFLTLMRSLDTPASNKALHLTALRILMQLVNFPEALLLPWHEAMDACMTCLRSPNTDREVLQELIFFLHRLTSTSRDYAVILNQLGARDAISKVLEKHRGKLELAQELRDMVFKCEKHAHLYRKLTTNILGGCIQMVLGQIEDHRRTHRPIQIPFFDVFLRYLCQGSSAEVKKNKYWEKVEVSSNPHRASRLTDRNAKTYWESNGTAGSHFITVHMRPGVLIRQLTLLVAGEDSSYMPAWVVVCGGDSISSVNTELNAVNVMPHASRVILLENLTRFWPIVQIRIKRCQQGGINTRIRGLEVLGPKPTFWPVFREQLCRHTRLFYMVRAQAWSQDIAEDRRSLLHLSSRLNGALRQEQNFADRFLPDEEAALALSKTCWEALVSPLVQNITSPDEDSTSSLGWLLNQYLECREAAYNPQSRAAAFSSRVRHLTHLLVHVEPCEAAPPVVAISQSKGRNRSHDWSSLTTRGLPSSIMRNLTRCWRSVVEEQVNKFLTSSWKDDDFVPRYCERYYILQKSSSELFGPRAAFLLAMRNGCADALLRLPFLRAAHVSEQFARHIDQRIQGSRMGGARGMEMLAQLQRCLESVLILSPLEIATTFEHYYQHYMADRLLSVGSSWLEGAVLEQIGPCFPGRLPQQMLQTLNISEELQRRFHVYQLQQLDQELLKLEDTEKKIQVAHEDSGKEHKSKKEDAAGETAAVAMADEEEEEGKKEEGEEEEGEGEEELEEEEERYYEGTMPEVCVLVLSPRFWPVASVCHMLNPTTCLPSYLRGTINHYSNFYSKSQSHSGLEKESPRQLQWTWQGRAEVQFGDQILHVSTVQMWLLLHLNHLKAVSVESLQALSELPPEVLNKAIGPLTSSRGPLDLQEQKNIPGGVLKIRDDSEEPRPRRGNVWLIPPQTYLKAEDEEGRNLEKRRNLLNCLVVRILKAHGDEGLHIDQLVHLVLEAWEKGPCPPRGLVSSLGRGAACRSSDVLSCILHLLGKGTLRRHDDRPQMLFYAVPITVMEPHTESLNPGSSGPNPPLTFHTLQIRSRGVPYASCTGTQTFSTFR

Legend:
[1] = target: rat Eag1 (rEag1) potassium channel (rat) (UniProt Q63472); assay: co-IP; HEK293T cells co-transfected; lysates in 1% Triton X-100 lysis buffer (100 mM NaCl, pH 7.5); protein A/G Sepharose beads coated with antibodies (anti-Myc or anti-rEag1), 16 hrs at 4 °C; immunoblotting
[2] = target: endogenous rEag1 in rat forebrain (rat (endogenous in forebrain)) (UniProt Q63472); assay: co-IP; endogenous proteins; crude membrane fractions from forebrain homogenates of adult rats; immunoprecipitated with the anti-rEag1 antibody or rabbit IgG; immunoblotting

Row | binding [1] | binding [2] | Substance
1 | binds |  | Myc-tagged human cullin 7 (from UniProt Q14999 1-1698)
2 |  | binds | endogenous Cul7 in rat forebrain (from UniProt D3ZEF4 1-1692)
